Measured values published in PubChem BioAssay AID540256 (National Center for Advancing Translational Sciences (NCATS), 2011).
Hit rate of the full screen: of about 300,000 compounds, about 3,700 (1.2%) were called active. The inconclusive results got no clear call from the source; some entries with a clear call stand among them for comparison. The call rests on the fitted dose curve; tested in HEK293 cells. Where the call is inconclusive, the potency comes from a doubtful curve fit.

assay: qHTS for Inhibitors of binding or entry into cells for Lassa Virus; details: Lassa virus pseudotype entry inhibition, cell reporter; activity change, negative = inhibition: at 37.9 µM (top of the series) unless noted; further: nearly all actives have a fitted effect of over 50% in size
On the % scale 0 is the no-effect control and ±100 the full control effect; potency means the concentration at half of the fitted maximal effect.

Structure (SMILES)	activity change, negative = inhibition	Potency
CCNC(=O)c1ccc(NC(=O)CC2SC(N3CCCC3)=NC2=O)cc1 (configuration not stated)	inactive: 2.7%	–
CCN(c1ccc(NS(=O)(=O)c2cc(Cl)ccc2Cl)cc1)C(C)C	–	inconclusive: 11.2 µM [inhibitor, partial curve]
CCn1c(CCc2ccccc2)nc2ccccc21	–	inconclusive: 35.5 µM [activator, partial curve, poor fit]
COc1cc(-c2nnc(SCC(=O)Nc3cc(C)on3)n2C)cc(OC)c1O	–	inconclusive: 6.51 µM [inhibitor, single point]
Cc1ccc(C(=O)Cn2nnc(-c3ccccc3)n2)cc1	inactive: 8.03%	–
Cc1ccc(NC(=O)c2c(C)oc3ccc(O)c(CN4CCCCCC4)c23)c(C)c1	–	inconclusive: 35.5 µM [inhibitor, single point]
O=c1c2ccccc2nc2oc3ccccc3n12	–	inconclusive: 2.82 µM [inhibitor, single point]
Cn1nccc1C(=O)N1CCCC(C(=O)c2cccc3ccccc23)C1 (configuration not stated)	–	inconclusive: 7.08 µM [inhibitor, partial curve, poor fit]
O=c1oc2ccccc2c(Nc2ccc(O)cc2)c1[N+](=O)[O-]	inactive: -26.6%	–
Cn1c(SCC(=O)N2CCCc3ccccc32)nc2ccccc2c1=O	–	active: 12.6 µM
Cc1c(C(=O)Nc2ccc3c(c2)CCC3)cccc1[N+](=O)[O-]	–	inconclusive: 3.98 µM [activator, partial curve]
COc1cccc(-c2ccc3c(N)c(C(=O)c4ccc(Cl)cc4)sc3n2)c1	–	inconclusive: 3.16 µM [inhibitor, partial curve, poor fit]
CN(C)S(=O)(=O)c1cccc(C(=O)Nc2ccccc2C(=O)NC2CC2)c1	–	inconclusive: 1.26 µM [activator, single point]
CCC(C)NC(=O)Cn1ncc2c([nH]c3ccc(C)cc32)c1=O (configuration not stated)	–	inconclusive: 35.5 µM [activator, single point]
O=C(Nc1nc2n(n1)C(c1ccccc1)C=C(c1ccccc1)N2)c1ccc(Cl)c([N+](=O)[O-])c1 (configuration not stated)	–	inconclusive: 4.47 µM [inhibitor, full curve, poor fit]
CCc1cccc(NC(=O)Cn2nc(-c3ccc(OC)cc3)ccc2=O)c1	inconclusive: 36.5% [activator] [at 46.1 µM]	–
CC(=O)c1ccc(S(=O)(=O)NCc2ccc(C(=O)N(C)CC(=O)Nc3cccc(F)c3)cc2)cc1	–	inconclusive: 0.0018 µM [inhibitor, full curve, poor fit]
CS(=O)(=O)N1CCc2cc(C(=O)Nc3ccccc3Cl)ccc21	–	inconclusive: 0.562 µM [inhibitor, full curve, poor fit]
Cc1ccc(S(=O)(=O)N(C)C)cc1NC(=O)C(C)N(C)CCOc1ccc(Cl)cc1 (configuration not stated)	–	inconclusive: 11.2 µM [inhibitor, partial curve]
O=C1OCCC1(c1ccccc1)c1ccccc1	–	inconclusive: 35.5 µM [inhibitor, partial curve, poor fit]
CCOC(=O)c1cc(NC(=O)Nc2ccccc2Cl)c(C)nc1C	–	inconclusive: 5.01 µM [inhibitor, full curve, poor fit]

Structure (SMILES)	activity change, negative = inhibition	Potency
COc1cccc(Cn2cccc(NC(=O)NC3CCCCC3)c2=O)c1	–	inconclusive: 2.06 µM [inhibitor, partial curve]
CCc1ccc(NC(=S)NCC2CCCN2CC)cc1 (configuration not stated)	–	inconclusive: 3.55 µM [inhibitor, single point]
COc1cc(CNc2ccc(N3CCCC3)cc2)ccc1OCc1ccccc1	inactive: -27.4%	–
O=C(Nc1ccccc1)N1CCC(C(=O)N(Cc2ccco2)Cc2cccs2)CC1	–	inconclusive: 29.1 µM [inhibitor, single point]
Cn1c(-c2ccc(Br)o2)nc2cc(Br)ccc21	–	inconclusive: 2.51 µM [activator, partial curve, poor fit]
NS(=O)(=O)c1ccc(NC(=O)CSc2nnc(NC3CC3)s2)cc1	inactive: 0.482% [at 46.1 µM]	–
Cc1csc(NC(=O)c2ccc(C)c([N+](=O)[O-])c2)n1	–	inconclusive: 8.2 µM [inhibitor, partial curve, poor fit]
CC(C)CC(=O)Nc1cc2nn(-c3ccccc3)nc2cc1Cl	–	inconclusive: 2.59 µM [activator, full curve, poor fit]
CCOC(=O)c1c(-c2ccccc2)oc2cc(CN(C)C)c(O)c(CN(C)C)c12	–	inconclusive: 29.1 µM [inhibitor, single point]
CC(=O)c1ccc(C(=O)N2CCc3c([nH]c4ccccc34)C2c2ccccn2)s1 (configuration not stated)	–	inconclusive: 35.5 µM [inhibitor, single point]
COc1cc(C(=S)N2CCCCC2)ccc1OCC(=O)Nc1ccccc1Cl	–	inconclusive: 18.3 µM [inhibitor, partial curve]
Cc1cc(C)nc(SCNC(=O)c2ccccc2)n1	inactive: 21.7% [at 14.3 µM]	–
CSc1nc(-c2ccccc2)nc(C(Cl)Cl)n1	–	inconclusive: 2.82 µM [inhibitor, partial curve, poor fit]
COc1cccc(C(=O)N2c3cc(C)ccc3C(C)(c3ccccc3)CC2(C)C)c1 (configuration not stated)	–	inconclusive: 8.91 µM [inhibitor, partial curve, poor fit]
NC(=O)CI	inactive: -37.3%	–
CC1CN(S(=O)(=O)c2csc(C(=O)Nc3ccccc3)c2)CC(C)O1 (configuration not stated)	–	inconclusive: 25.1 µM [inhibitor, single point]
CCOC(=O)c1c(C)nc2sc(C(=O)Nc3ccc(C(C)=O)cc3)c(N)c2c1-c1ccc(OC)cc1	–	inconclusive: 8.91 µM [inhibitor, partial curve, poor fit]
COc1ccc(CCNc2nc(-c3cccnc3)cs2)cc1OC	–	inconclusive: 23.1 µM [inhibitor, single point]
S=C(NCc1ccc2c(c1)OCO2)NC1CCN(Cc2ccccc2)CC1	–	inconclusive: 10 µM [inhibitor, partial curve]
Cc1c(Cl)cccc1S(=O)(=O)N1CCC(C(=O)NNC(=O)C2CC2)CC1	inactive: 0.183%	–
CCOC(=O)c1sc(NC(=O)Nc2ccc(F)cc2)nc1C	–	inconclusive: 0.251 µM [activator, full curve, poor fit]

Part of the list above in a different format.
Cn1c(-c2ccc(Br)o2)nc2cc(Br)ccc21
  Potency: inconclusive: 2.51 µM [activator, partial curve, poor fit]
NS(=O)(=O)c1ccc(NC(=O)CSc2nnc(NC3CC3)s2)cc1
  activity change, negative = inhibition: inactive: 0.482% [at 46.1 µM]
Cc1csc(NC(=O)c2ccc(C)c([N+](=O)[O-])c2)n1
  Potency: inconclusive: 8.2 µM [inhibitor, partial curve, poor fit]
CC(C)CC(=O)Nc1cc2nn(-c3ccccc3)nc2cc1Cl
  Potency: inconclusive: 2.59 µM [activator, full curve, poor fit]
